This is one part of the list.
How the values were obtained:
Assay in all cases: log2 fold change, soluble protein after heating vs DMSO (PISA); higher = thermal stabilisation; K562 lysate, 10 uM; active = over 0.2 and 3.5 SD of the protein, either way, in both replicates (recomputed)
[1] = compound: Cc1cn(-c2cc(NC(=O)c3ccc(C)c(Nc4nccc(-c5cccnc5)n4)c3)cc(C(F)(F)F)c2)cn1 [nilotinib]
How it was run: (§1)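 Pellets of K562 cells were dounce-homogenised in PBS pH 7.4 with 1 mM MgCl2, and the crude extract was held at 1 mg/mL protein for a 30 min treatment with 10 μM compound. Aliquots were heated for 3 min over 48°C-58°C and pooled before NP-40 was added to 0.5% at 4°C. The supernatant from 21,000xg for 90 min was quantified by TMTpro 16plex LC-MS/MS with channel sums equalised. Values are reported from duplicates as log-two fold change in thermal stability relative to solvent controls.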

By UniProt entry, the sequences of proteins in these tests, tags left out. Where a name states a change or a piece, a line headed by the entry shows the natural chain unless it says otherwise.
UniProt Q96G23: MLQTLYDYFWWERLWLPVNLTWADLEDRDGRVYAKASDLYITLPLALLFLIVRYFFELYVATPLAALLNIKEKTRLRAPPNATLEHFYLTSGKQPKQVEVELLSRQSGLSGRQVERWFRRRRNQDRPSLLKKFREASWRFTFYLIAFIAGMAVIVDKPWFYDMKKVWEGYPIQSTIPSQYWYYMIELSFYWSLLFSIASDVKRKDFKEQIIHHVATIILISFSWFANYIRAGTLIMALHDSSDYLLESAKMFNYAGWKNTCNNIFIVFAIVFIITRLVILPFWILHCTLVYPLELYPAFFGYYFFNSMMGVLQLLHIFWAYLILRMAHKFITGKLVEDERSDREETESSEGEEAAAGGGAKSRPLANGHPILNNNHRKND
UniProt Q02224: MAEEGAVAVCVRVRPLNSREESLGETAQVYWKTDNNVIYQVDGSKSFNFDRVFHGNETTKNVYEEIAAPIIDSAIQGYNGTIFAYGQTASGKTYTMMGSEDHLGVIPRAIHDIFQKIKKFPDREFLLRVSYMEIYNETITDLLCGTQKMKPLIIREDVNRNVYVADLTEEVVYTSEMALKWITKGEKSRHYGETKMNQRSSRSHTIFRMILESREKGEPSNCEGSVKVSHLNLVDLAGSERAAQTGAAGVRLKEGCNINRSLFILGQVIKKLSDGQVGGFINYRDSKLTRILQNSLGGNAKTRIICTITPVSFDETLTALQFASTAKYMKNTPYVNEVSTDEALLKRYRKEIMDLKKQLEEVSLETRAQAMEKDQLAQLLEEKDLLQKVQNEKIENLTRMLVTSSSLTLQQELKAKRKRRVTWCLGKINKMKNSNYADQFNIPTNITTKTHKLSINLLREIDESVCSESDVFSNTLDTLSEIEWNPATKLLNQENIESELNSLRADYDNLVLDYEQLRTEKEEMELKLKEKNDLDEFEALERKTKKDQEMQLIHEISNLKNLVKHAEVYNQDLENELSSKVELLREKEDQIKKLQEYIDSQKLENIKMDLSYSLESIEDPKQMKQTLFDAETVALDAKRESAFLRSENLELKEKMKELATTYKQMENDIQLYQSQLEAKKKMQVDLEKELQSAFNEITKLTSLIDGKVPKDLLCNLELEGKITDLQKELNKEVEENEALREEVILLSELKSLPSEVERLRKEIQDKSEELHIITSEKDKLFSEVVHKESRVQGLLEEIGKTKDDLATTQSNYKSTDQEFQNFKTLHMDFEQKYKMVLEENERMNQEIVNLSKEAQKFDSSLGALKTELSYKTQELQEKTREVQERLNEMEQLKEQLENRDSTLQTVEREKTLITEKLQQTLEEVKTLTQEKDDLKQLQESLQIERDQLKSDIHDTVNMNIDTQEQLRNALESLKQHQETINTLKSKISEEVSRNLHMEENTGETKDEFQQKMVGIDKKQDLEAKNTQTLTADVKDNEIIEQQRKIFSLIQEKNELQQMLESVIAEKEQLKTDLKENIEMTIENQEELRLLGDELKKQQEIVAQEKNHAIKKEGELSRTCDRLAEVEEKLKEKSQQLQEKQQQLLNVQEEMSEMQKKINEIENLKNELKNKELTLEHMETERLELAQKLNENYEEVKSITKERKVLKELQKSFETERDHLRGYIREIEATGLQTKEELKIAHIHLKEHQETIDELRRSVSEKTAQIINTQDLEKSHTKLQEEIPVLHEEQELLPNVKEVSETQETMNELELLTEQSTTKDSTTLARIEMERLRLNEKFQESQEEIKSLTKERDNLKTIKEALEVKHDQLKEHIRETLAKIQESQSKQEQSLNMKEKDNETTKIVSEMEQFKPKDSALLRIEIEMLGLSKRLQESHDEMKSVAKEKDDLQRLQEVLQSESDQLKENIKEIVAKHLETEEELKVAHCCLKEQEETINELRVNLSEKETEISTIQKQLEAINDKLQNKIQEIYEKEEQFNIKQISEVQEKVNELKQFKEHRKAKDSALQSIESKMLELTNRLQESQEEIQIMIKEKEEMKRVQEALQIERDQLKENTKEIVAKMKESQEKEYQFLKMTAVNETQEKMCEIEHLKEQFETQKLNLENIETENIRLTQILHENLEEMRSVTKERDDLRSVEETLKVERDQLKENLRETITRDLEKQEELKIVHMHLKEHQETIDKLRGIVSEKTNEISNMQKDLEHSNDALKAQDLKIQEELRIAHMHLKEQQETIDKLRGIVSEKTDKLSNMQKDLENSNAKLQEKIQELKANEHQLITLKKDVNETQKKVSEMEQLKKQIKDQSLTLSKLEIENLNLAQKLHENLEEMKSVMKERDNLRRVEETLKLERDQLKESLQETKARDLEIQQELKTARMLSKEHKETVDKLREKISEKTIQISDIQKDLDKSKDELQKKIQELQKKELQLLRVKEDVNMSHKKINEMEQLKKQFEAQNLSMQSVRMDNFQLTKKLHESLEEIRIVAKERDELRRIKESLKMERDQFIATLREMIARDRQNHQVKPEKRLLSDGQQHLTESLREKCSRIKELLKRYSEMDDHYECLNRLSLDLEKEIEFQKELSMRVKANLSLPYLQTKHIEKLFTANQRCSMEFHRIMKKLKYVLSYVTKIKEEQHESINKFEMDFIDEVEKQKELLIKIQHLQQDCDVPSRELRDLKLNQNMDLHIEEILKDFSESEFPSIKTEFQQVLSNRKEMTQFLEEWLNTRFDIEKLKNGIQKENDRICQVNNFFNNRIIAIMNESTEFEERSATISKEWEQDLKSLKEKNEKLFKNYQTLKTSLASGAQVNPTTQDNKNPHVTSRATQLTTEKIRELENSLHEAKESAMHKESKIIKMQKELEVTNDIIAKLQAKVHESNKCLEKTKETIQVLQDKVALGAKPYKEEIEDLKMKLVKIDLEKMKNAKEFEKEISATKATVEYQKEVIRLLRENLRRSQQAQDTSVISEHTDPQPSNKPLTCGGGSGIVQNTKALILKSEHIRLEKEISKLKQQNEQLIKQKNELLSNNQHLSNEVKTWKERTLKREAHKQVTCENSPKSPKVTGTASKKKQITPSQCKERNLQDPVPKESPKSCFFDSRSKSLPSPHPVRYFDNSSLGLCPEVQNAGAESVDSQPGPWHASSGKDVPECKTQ
UniProt P60953, whole entry, looked up: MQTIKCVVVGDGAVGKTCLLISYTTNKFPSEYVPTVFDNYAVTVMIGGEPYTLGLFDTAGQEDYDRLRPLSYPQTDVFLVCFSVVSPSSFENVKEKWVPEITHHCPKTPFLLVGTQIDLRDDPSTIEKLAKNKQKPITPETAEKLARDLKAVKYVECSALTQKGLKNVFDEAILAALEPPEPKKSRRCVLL
UniProt Q9UEE9, whole entry, looked up: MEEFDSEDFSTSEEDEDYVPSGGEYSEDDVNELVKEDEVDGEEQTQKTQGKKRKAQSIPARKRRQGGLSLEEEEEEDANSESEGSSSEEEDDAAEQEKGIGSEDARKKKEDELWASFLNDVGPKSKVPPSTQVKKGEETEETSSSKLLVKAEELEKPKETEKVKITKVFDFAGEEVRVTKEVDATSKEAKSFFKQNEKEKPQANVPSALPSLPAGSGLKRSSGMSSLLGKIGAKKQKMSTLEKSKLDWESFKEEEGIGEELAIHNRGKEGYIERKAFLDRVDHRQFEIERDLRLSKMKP
UniProt Q9Y6A4: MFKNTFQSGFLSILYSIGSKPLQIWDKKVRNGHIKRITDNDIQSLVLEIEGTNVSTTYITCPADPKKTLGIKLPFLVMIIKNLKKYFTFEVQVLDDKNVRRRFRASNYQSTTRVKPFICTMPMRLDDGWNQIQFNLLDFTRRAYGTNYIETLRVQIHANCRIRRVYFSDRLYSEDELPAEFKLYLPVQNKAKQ
UniProt Q01850: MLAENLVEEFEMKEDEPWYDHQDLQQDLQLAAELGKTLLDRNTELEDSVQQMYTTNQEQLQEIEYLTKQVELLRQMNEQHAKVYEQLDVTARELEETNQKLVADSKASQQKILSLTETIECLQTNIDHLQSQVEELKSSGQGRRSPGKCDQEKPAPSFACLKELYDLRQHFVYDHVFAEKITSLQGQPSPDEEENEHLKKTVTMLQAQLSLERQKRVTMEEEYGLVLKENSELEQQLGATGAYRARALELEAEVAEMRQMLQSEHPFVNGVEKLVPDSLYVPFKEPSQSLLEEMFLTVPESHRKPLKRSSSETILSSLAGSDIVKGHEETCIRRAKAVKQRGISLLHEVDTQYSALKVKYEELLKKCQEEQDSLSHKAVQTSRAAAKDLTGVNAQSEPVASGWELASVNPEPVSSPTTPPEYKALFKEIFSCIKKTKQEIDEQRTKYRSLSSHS
UniProt P48960: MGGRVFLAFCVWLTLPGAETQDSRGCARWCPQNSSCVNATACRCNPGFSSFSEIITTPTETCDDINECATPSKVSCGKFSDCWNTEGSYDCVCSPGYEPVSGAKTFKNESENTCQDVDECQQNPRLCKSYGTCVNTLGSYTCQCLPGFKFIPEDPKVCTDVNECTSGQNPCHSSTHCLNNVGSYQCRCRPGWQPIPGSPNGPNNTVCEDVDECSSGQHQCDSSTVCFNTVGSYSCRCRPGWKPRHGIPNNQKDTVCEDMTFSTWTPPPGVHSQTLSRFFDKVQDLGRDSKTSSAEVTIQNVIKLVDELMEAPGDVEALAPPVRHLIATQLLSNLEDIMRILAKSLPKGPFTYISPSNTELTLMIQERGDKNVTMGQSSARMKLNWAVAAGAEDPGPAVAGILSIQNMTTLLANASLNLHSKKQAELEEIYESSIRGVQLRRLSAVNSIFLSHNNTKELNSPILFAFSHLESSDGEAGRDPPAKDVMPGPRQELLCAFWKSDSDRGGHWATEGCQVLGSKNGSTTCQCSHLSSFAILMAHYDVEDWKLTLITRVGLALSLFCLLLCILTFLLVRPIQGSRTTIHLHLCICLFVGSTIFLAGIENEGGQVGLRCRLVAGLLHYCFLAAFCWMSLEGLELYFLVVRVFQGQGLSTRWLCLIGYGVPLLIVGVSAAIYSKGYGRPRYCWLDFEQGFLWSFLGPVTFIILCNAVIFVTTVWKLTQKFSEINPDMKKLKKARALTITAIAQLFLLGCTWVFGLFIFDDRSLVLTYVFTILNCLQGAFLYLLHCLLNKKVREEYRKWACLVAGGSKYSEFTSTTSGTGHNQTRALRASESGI
UniProt Q9NRR3: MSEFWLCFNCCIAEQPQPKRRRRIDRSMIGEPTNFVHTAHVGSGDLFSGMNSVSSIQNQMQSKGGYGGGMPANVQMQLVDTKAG
UniProt Q99459: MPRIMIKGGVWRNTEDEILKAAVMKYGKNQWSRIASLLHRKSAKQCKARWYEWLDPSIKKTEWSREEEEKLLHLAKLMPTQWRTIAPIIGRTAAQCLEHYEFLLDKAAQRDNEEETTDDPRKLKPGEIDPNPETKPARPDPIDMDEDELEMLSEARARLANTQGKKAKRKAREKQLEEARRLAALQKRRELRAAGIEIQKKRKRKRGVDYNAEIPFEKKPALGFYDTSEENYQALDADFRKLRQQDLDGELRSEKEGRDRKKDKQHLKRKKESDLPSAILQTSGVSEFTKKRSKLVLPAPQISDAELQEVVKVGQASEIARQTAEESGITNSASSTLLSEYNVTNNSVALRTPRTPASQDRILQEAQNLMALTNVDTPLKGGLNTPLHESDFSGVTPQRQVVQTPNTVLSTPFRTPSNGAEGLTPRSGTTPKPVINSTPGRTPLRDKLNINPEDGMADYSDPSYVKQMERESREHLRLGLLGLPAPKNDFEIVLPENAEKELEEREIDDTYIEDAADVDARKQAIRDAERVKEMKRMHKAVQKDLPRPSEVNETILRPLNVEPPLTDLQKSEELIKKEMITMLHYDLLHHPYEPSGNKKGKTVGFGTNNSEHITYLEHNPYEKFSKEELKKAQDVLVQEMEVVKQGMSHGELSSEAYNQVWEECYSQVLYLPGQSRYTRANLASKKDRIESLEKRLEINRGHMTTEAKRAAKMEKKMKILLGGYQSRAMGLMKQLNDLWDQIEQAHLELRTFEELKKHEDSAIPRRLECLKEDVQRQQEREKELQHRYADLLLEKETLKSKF
UniProt Q15517: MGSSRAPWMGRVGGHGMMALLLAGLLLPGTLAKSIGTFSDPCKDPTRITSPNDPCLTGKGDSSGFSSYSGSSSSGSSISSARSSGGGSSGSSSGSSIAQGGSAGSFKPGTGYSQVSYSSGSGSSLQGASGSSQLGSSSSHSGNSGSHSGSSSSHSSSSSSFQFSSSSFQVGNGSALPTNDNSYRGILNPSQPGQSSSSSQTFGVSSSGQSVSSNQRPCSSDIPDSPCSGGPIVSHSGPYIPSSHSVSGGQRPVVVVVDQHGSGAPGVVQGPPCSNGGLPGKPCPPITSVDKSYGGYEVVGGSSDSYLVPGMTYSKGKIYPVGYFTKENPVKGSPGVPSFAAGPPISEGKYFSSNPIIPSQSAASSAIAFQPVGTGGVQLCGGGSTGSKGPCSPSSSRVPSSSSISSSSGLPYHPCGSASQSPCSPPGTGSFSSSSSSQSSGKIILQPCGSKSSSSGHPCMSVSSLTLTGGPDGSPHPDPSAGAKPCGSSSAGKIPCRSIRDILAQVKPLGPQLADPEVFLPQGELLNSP

[2] = compound: Cc1nc(Nc2n[nH]c3c2CN(C(=O)N[C@H](CN(C)C)c2ccccc2)C3(C)C)c2sccc2n1
How it was run: as §1

[3] = compound: Cc1nc(Nc2ncc(C(=O)Nc3c(C)cccc3Cl)s2)cc(N2CCN(CCO)CC2)n1 [dasatinib]
How it was run: as §1

[4] = compound: Cc1ncc(-c2ccnc(Nc3ccc(S(C)(=O)=O)cc3)n2)n1C(C)C
How it was run: as §1

[5] = compound: Cn1cc(-c2ccc3c(c2)CCN3C(=O)Cc2cccc(C(F)(F)F)c2)c2c(N)ncnc21
How it was run: as §1

[6] = compound: Cn1cc(CNCC2CCN(c3ncc(C(=O)NO)cn3)CC2)c2ccccc21 [quisinostat]
How it was run: as §1

[7] = compound: Cn1cncc1[C@@](N)(c1ccc(Cl)cc1)c1ccc2c(c1)c(-c1cccc(Cl)c1)cc(=O)n2C [tipifarnib]
How it was run: as §1

[8] = compound: NC(=O)Nc1cc(-c2cccc(F)c2)sc1C(=O)N[C@H]1CCCNC1
How it was run: as §1

[9] = compound: NC(=O)c1cnc(N[C@@H]2CCCC[C@@H]2N)nc1Nc1cccc(-n2nccn2)c1
How it was run: as §1

[10] = compound: NC1(c2ccc(-c3nc4ccn5c(=O)[nH]nc5c4cc3-c3ccccc3)cc2)CCC1
How it was run: as §1

[11] = compound: NCC(=O)Nc1ccc(-n2nc(C(F)(F)F)cc2-c2ccc3c(ccc4ccccc43)c2)cc1
How it was run: as §1

[12] = compound: O=C(CCCCCCC(=O)Nc1ccccc1)NO [vorinostat]
How it was run: as §1

[13] = compound: O=C(O)c1ccc2c(c1)nc(Nc1cccc(Cl)c1)c1ccncc12 [silmitasertib]
How it was run: as §1

[14] = compound: O=C1NC(=O)C(c2cnc3ccccn23)=C1c1cn2c3c(cc(F)cc13)CN(C(=O)N1CCCCC1)CC2
How it was run: as §1

[15] = compound: c1cn2cc(-c3ccc4cn[nH]c4c3)nc(Nc3ccc(N4CCOCC4)cc3)c2n1 [entospletinib]
How it was run: as §1

Measured: log2 fold change

CERS2 (UniProt Q96G23)
inactive: [1] -0.016 | [2] -0.022 | [3] 0.056 | [4] -0.042 | [5] -0.057 | [6] -0.125 | [7] 0.016 | [8] 0.023 | [9] 0 | [10] -0.06 | [11] 0.042 | [12] 0.062 | [13] 0.006 | [14] -0.005 | [15] 0.029

CDC16 (UniProt Q13042)
active: [12] -0.265
inactive: [1] -0.013 | [2] 0.023 | [3] -0.012 | [4] -0.027 | [5] 0.019 | [6] 0.01 | [7] 0.017 | [8] 0.024 | [9] -0.019 | [10] -0.014 | [11] -0.068 | [13] 0.023 | [14] -0.006 | [15] -0.015

CENPE (UniProt Q02224)
inactive: [1] -0.017 | [2] 0.015 | [3] -0.055 | [4] 0.001 | [5] 0.038 | [6] -0.143 | [7] -0.099 | [8] 0.04 | [9] -0.044 | [10] -0.032 | [11] 0.072 | [12] -0.186 | [13] 0.011 | [14] -0.043 | [15] -0.043

CDC42 (UniProt P60953)
inactive: [1] -0.036 | [2] 0.065 | [3] 0.084 | [4] 0.026 | [5] -0.022 | [6] 0.109 | [7] -0.028 | [8] -0.021 | [9] 0.041 | [10] 0.017 | [11] -0.073 | [12] 0.017 | [13] 0.061 | [14] 0.074 | [15] -0.063

CFDP1 (UniProt Q9UEE9)
inactive: [1] -0.008 | [2] 0.051 | [3] 0.029 | [4] 0.035 | [5] 0.009 | [6] -0.102 | [7] 0.013 | [8] -0.038 | [9] -0.013 | [10] -0.026 | [11] -0.009 | [12] 0.095 | [13] -0.05 | [14] -0.078 | [15] -0.012

CEP120 (UniProt Q8N960)
inactive: [2] -0.186 | [3] 0 | [4] -0.251 | [5] -0.001 | [6] -0.067 | [7] 0.16 | [8] 0.013 | [9] 0.024 | [10] -0.151 | [11] 0.261 | [12] 0.042 | [13] -0.075 | [14] 0.135 | [15] -0.13
active: [1] 0.524

CELF1 isoform 4 (UniProt Q92879)
inactive: [1] -0.022 | [2] 0.042 | [3] -0.025 | [4] 0 | [5] 0 | [6] 0.021 | [7] -0.013 | [8] 0.037 | [9] 0.033 | [10] 0.067 | [11] 0.065 | [13] 0.019 | [14] 0.022 | [15] 0.013
active: [12] -0.347

CFAP20 (UniProt Q9Y6A4)
inactive: [1] -0.021 | [2] 0.008 | [3] 0.026 | [4] -0.001 | [5] -0.02 | [6] -0.05 | [7] -0.026 | [8] 0.016 | [9] -0.01 | [10] 0.004 | [11] -0.031 | [12] 0.074 | [13] -0.006 | [14] 0.006 | [15] 0.019

CDR2 (UniProt Q01850)
inactive: [1] 0.029 | [2] -0.086 | [3] 0 | [4] 0.009 | [5] 0.004 | [6] -0.027 | [7] 0.032 | [8] 0.009 | [9] -0.053 | [10] 0.003 | [11] 0.089 | [12] -0.066 | [13] -0.011 | [14] -0.02 | [15] 0.026

CD97 (UniProt P48960)
inactive: [1] -0.015 | [2] 0.032 | [3] -0.007 | [4] -0.055 | [5] -0.048 | [6] -0.074 | [7] -0.013 | [8] 0.009 | [9] -0.001 | [10] 0.279 | [11] -0.007 | [12] 0.105 | [13] -0.074 | [14] -0.092 | [15] -0.026

CDC73 (UniProt Q6P1J9)
inactive: [1] -0.037 | [2] 0.002 | [3] -0.019 | [4] -0.022 | [5] 0.012 | [6] 0.009 | [7] 0 | [8] 0.033 | [9] 0.022 | [10] -0.007 | [11] 0.037 | [12] -0.205 | [13] -0.007 | [14] -0.026 | [15] -0.017

CDC42SE2 (UniProt Q9NRR3)
inactive: [1] 0.19 | [2] -0.036 | [3] -0.044 | [4] -0.041 | [5] -0.058 | [6] 0.06 | [7] 0.085 | [8] 0.022 | [9] -0.043 | [10] -0.065 | [11] -0.112 | [12] 0.203 | [13] -0.05 | [14] 0.029 | [15] 0.041

CDC5L (UniProt Q99459)
inactive: [1] 0.006 | [2] 0.01 | [3] 0.009 | [4] -0.023 | [5] 0.021 | [6] -0.014 | [7] 0.017 | [8] 0.026 | [9] 0.018 | [10] 0.046 | [11] 0.008 | [12] -0.053 | [13] 0.007 | [14] -0.002 | [15] 0.017

CDSN (UniProt Q15517)
inactive: [1] 0.021 | [2] 0.489 | [3] -0.018 | [4] -0.193 | [5] -0.105 | [6] 0.53 | [7] -0.196 | [8] -0.285 | [9] 0.191 | [10] 0.229 | [11] 0 | [12] 0.158 | [13] -0.335 | [14] 0.302 | [15] -0.804

CEP131 (UniProt Q9UPN4)
inactive: [1] 0.013 | [2] 0.056 | [3] 0.052 | [4] 0.047 | [5] -0.028 | [6] -0.078 | [7] 0.031 | [8] -0.009 | [9] 0.026 | [10] -0.2 | [11] 0.007 | [12] 0.1 | [13] 0.016 | [14] 0.037 | [15] 0.065

CES2 isoform 4 (UniProt O00748)
inactive: [1] -0.073 | [2] -0.115 | [3] 0.065 | [4] 0.098 | [5] -0.087 | [6] -0.042 | [7] 0.05 | [8] -0.029 | [9] 0.033 | [10] 0.001 | [11] 0.049 | [12] 0.307 | [13] -0.093 | [14] 0.177 | [15] -0.034

CENPU (UniProt Q71F23)
inactive: [1] 0.03 | [2] -0.047 | [3] 0.032 | [4] -0.078 | [5] 0 | [6] -0.006 | [7] -0.027 | [8] 0.004 | [9] -0.013 | [10] -0.022 | [11] 0.062 | [12] -0.167 | [13] 0.051 | [14] 0.018 | [15] -0.062

CDK5 (UniProt Q00535)
inactive: [1] -0.013 | [2] 0.23 | [3] 0.022 | [5] 0.019 | [6] -0.132 | [7] 0.003 | [8] 0.044 | [9] 0.05 | [10] -0.112 | [11] -0.036 | [12] -0.232 | [14] 0.179 | [15] 0.036
active: [4] 0.541 | [13] 0.855

CDC27 isoform 2 (UniProt P30260)
inactive: [1] 0.041 | [2] -0.025 | [3] -0.024 | [4] 0.022 | [5] 0.01 | [6] -0.014 | [7] -0.016 | [8] 0.007 | [9] 0 | [10] 0.005 | [11] 0.001 | [12] -0.098 | [13] -0.004 | [14] 0.016 | [15] 0.006

Quoted at random: two records from the list, in no set order.
CEP131 (UniProt Q9UPN4)
inactive: [1] 0.013 | [2] 0.056 | [3] 0.052 | [4] 0.047 | [5] -0.028 | [6] -0.078 | [7] 0.031 | [8] -0.009 | [9] 0.026 | [10] -0.2 | [11] 0.007 | [12] 0.1 | [13] 0.016 | [14] 0.037 | [15] 0.065

CES2 isoform 4 (UniProt O00748)
inactive: [1] -0.073 | [2] -0.115 | [3] 0.065 | [4] 0.098 | [5] -0.087 | [6] -0.042 | [7] 0.05 | [8] -0.029 | [9] 0.033 | [10] 0.001 | [11] 0.049 | [12] 0.307 | [13] -0.093 | [14] 0.177 | [15] -0.034

The list continues.

CEP41 (UniProt Q9BYV8)
inactive: [1] 0.001 | [2] 0.034 | [3] 0.043 | [4] -0.008 | [5] -0.077 | [6] -0.068 | [7] -0.027 | [8] -0.128 | [9] 0.066 | [10] 0.076 | [11] 0.002 | [13] -0.026 | [14] -0.152 | [15] -0.017
active: [12] -0.558

CDK11B (UniProt P21127)
inactive: [1] -0.006 | [2] -0.015 | [3] -0.028 | [4] 0.087 | [5] 0.068 | [6] -0.023 | [7] 0.01 | [8] 0.018 | [9] 0.009 | [10] -0.018 | [11] 0.009 | [12] -0.115 | [13] 0.065 | [14] -0.023
active: [15] 0.255
